Laboratory results: PubChem BioAssay AID652243 (Drosophila RNAi Screening Center, 2013)
The screen tested about 24,000 reagents; below is an unselected part of those that have a named target and a result. In the full data, 246 (1%) were called active. 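Plates not normalised; calls are printed but the firefly/Renilla ratio behind them is not deposited; fold cut for lowering reported inconsistently.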 Raw values are not corrected between plates. The record does not give: the amount of reagent.

Purpose: 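Fly regulators of androgen-dependent reporter output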 (primary screen)
System: Drosophila S2R+ cells
Reagent: long dsRNA against Drosophila genes
Time to read-out: 72 h (48 h, then 24 h hormone)
Conditions: synthetic androgen R1881 at 10 nM for 24 h
Read-out: 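Per-well raw luminescence of the androgen-driven firefly reporter and of the Renilla control, two replicates each, without normalisation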
Reading the numbers: firefly reporter light: higher = more light from androgen-responsive reporter; Renilla control light: higher = more constitutive control signal (cell number, transfection)
Hit rule: 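Across duplicate plates, a knock-down whose log firefly/Renilla ratio shifted a set fold down or up from the GFP/LacZ control mean was a hit; the downward cut appears as both 1.5 and 3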
Meaning of the calls: active = hit: reporter lowered or raised; inactive = no hit

{"Gene":"Usp2 (Ubiquitin specific protease 2)","amplicon":"DRSC20590","firefly reporter light, replicate 1":9.74e5,"firefly reporter light, replicate 2":6.86e5,"Renilla control light, replicate 1":1.33e6,"Renilla control light, replicate 2":1.21e6,"Call":"inactive"}
{"Gene":"Usp2 (Ubiquitin specific protease 2)","amplicon":"DRSC20632","firefly reporter light, replicate 1":16224,"firefly reporter light, replicate 2":15779,"Renilla control light, replicate 1":1.77e5,"Renilla control light, replicate 2":2.15e5,"Call":"inactive"}
{"Gene":"Usp2 (Ubiquitin specific protease 2)","amplicon":"DRSC20633","firefly reporter light, replicate 1":1.14e5,"firefly reporter light, replicate 2":72026,"Renilla control light, replicate 1":3.68e5,"Renilla control light, replicate 2":1.73e5,"Call":"inactive"}
{"Gene":"Usp2 (Ubiquitin specific protease 2)","amplicon":"DRSC27066","firefly reporter light, replicate 1":4.59e5,"firefly reporter light, replicate 2":3.11e5,"Renilla control light, replicate 1":1.08e6,"Renilla control light, replicate 2":6.37e5,"Call":"inactive"}
{"Gene":"CG34428","amplicon":"DRSC10119","firefly reporter light, replicate 1":1.64e5,"firefly reporter light, replicate 2":1.33e5,"Renilla control light, replicate 1":1.85e6,"Renilla control light, replicate 2":1.76e6,"Call":"inactive"}
{"Gene":"CG32074","amplicon":"DRSC22246","firefly reporter light, replicate 1":6.30e5,"firefly reporter light, replicate 2":7.72e5,"Renilla control light, replicate 1":1.65e6,"Renilla control light, replicate 2":1.27e6,"Call":"inactive"}
{"Gene":"CG32074","amplicon":"DRSC26504","firefly reporter light, replicate 1":3.72e5,"firefly reporter light, replicate 2":3.26e5,"Renilla control light, replicate 1":7.98e5,"Renilla control light, replicate 2":8.54e5,"Call":"inactive"}
{"Gene":"CG10366","amplicon":"DRSC02046","firefly reporter light, replicate 1":1.27e6,"firefly reporter light, replicate 2":1.94e6,"Renilla control light, replicate 1":2.09e6,"Renilla control light, replicate 2":2.68e6,"Call":"inactive"}
{"Gene":"CG10366","amplicon":"DRSC26463","firefly reporter light, replicate 1":2.98e5,"firefly reporter light, replicate 2":3.10e5,"Renilla control light, replicate 1":5.57e5,"Renilla control light, replicate 2":4.57e5,"Call":"inactive"}
{"Gene":"rictor (rapamycin-insensitive companion of Tor)","amplicon":"DRSC20071","firefly reporter light, replicate 1":1.18e5,"firefly reporter light, replicate 2":1.08e5,"Renilla control light, replicate 1":3.99e5,"Renilla control light, replicate 2":2.96e5,"Call":"inactive"}
{"Gene":"ZnT86D (Zinc transporter 86D)","amplicon":"DRSC16091","firefly reporter light, replicate 1":1.40e5,"firefly reporter light, replicate 2":1.40e5,"Renilla control light, replicate 1":1.73e6,"Renilla control light, replicate 2":2.18e6,"Call":"inactive"}
{"Gene":"Sf3b2 (Splicing factor 3b subunit 2)","amplicon":"DRSC00619","firefly reporter light, replicate 1":6.33e5,"firefly reporter light, replicate 2":5.14e5,"Renilla control light, replicate 1":1.87e6,"Renilla control light, replicate 2":1.88e6,"Call":"inactive"}
{"Gene":"udt (undicht)","amplicon":"DRSC14214","firefly reporter light, replicate 1":1.42e5,"firefly reporter light, replicate 2":1.42e5,"Renilla control light, replicate 1":2.05e6,"Renilla control light, replicate 2":2.00e6,"Call":"inactive"}

Not a retest: an excerpt of the list.
{"Gene":"Usp2 (Ubiquitin specific protease 2)","amplicon":"DRSC20633","firefly reporter light, replicate 1":1.14e5,"firefly reporter light, replicate 2":72026,"Renilla control light, replicate 1":3.68e5,"Renilla control light, replicate 2":1.73e5,"Call":"inactive"}
{"Gene":"Usp2 (Ubiquitin specific protease 2)","amplicon":"DRSC27066","firefly reporter light, replicate 1":4.59e5,"firefly reporter light, replicate 2":3.11e5,"Renilla control light, replicate 1":1.08e6,"Renilla control light, replicate 2":6.37e5,"Call":"inactive"}

Continued:
{"Gene":"Cyp305a1 (Cytochrome P450 305a1)","amplicon":"DRSC11126","firefly reporter light, replicate 1":17748,"firefly reporter light, replicate 2":17743,"Renilla control light, replicate 1":1.61e5,"Renilla control light, replicate 2":2.03e5,"Call":"inactive"}
{"Gene":"CG31093","amplicon":"DRSC15689","firefly reporter light, replicate 1":1.14e5,"firefly reporter light, replicate 2":1.44e5,"Renilla control light, replicate 1":1.63e6,"Renilla control light, replicate 2":1.94e6,"Call":"inactive"}
{"Gene":"CG17780","amplicon":"DRSC15265","firefly reporter light, replicate 1":1.98e5,"firefly reporter light, replicate 2":2.62e5,"Renilla control light, replicate 1":2.35e6,"Renilla control light, replicate 2":2.17e6,"Call":"inactive"}
{"Gene":"CG2983","amplicon":"DRSC38931","firefly reporter light, replicate 1":9.12e5,"firefly reporter light, replicate 2":7.72e5,"Renilla control light, replicate 1":2.12e6,"Renilla control light, replicate 2":1.31e6,"Call":"inactive"}
{"Gene":"CG42366","amplicon":"DRSC02760","firefly reporter light, replicate 1":52173,"firefly reporter light, replicate 2":54245,"Renilla control light, replicate 1":6.27e5,"Renilla control light, replicate 2":6.90e5,"Call":"inactive"}
{"Gene":"CG42366","amplicon":"DRSC23297","firefly reporter light, replicate 1":7.49e5,"firefly reporter light, replicate 2":8.04e5,"Renilla control light, replicate 1":1.22e6,"Renilla control light, replicate 2":1.69e6,"Call":"inactive"}
{"Gene":"CG42366","amplicon":"DRSC36982","Call":"inactive"}
{"Gene":"CG42366","amplicon":"DRSC36983","Call":"inactive"}
